We go through 32 targets from the supplement of paper PMC10849652.

Amino acid sequences for entries named in this document (tags omitted). A change or cut given only in a name is not applied to a line headed by its entry.
UniProt P49761: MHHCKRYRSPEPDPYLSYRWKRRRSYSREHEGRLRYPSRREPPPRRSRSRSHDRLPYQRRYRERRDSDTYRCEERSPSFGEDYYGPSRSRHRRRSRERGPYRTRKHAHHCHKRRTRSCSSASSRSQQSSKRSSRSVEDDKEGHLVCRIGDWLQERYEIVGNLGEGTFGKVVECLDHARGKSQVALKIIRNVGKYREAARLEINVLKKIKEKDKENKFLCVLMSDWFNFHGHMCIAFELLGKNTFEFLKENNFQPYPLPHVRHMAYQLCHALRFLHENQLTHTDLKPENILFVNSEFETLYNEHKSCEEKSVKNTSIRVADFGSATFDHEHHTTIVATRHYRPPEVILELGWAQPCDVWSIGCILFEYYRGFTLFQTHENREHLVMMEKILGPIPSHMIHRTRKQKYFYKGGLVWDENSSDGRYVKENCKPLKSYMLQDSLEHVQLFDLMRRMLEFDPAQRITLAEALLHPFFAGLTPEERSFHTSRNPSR
UniProt O96005: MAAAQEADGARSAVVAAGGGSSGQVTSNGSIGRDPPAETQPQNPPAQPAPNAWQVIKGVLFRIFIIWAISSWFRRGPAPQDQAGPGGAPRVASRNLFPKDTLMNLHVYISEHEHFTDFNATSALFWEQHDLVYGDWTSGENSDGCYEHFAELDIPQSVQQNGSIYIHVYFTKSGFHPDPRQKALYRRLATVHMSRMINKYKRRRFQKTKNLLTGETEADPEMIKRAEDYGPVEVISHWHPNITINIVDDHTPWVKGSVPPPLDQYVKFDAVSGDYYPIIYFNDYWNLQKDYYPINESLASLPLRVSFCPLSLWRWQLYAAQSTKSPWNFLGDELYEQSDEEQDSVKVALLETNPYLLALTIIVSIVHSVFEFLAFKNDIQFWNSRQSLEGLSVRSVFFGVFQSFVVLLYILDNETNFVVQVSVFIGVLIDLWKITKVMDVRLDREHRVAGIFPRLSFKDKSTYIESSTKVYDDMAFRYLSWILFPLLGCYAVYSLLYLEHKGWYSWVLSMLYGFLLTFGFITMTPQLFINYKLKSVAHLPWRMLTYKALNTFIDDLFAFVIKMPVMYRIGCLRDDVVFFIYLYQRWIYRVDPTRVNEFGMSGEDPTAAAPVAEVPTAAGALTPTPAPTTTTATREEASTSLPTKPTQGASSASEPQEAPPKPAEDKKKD
UniProt Q96NY7: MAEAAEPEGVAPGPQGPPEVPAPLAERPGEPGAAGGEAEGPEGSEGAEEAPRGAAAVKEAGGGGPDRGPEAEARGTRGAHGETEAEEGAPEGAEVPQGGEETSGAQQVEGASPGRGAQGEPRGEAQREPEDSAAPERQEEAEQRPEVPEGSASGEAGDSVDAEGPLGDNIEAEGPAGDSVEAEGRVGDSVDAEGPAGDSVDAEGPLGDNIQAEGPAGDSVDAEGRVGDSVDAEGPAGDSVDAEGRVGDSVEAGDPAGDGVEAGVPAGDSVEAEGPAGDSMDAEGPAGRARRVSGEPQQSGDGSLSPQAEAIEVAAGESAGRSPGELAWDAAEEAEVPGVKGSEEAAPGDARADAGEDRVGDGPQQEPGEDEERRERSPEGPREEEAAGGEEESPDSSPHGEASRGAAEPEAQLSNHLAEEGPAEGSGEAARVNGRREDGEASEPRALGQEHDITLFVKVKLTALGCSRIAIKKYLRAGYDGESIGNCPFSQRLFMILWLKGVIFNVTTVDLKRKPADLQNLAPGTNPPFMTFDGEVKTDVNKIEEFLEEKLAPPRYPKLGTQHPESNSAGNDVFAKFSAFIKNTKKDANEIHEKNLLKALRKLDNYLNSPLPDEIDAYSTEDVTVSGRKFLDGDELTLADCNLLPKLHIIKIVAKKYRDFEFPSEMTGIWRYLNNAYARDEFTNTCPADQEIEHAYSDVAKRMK
UniProt Q7Z460: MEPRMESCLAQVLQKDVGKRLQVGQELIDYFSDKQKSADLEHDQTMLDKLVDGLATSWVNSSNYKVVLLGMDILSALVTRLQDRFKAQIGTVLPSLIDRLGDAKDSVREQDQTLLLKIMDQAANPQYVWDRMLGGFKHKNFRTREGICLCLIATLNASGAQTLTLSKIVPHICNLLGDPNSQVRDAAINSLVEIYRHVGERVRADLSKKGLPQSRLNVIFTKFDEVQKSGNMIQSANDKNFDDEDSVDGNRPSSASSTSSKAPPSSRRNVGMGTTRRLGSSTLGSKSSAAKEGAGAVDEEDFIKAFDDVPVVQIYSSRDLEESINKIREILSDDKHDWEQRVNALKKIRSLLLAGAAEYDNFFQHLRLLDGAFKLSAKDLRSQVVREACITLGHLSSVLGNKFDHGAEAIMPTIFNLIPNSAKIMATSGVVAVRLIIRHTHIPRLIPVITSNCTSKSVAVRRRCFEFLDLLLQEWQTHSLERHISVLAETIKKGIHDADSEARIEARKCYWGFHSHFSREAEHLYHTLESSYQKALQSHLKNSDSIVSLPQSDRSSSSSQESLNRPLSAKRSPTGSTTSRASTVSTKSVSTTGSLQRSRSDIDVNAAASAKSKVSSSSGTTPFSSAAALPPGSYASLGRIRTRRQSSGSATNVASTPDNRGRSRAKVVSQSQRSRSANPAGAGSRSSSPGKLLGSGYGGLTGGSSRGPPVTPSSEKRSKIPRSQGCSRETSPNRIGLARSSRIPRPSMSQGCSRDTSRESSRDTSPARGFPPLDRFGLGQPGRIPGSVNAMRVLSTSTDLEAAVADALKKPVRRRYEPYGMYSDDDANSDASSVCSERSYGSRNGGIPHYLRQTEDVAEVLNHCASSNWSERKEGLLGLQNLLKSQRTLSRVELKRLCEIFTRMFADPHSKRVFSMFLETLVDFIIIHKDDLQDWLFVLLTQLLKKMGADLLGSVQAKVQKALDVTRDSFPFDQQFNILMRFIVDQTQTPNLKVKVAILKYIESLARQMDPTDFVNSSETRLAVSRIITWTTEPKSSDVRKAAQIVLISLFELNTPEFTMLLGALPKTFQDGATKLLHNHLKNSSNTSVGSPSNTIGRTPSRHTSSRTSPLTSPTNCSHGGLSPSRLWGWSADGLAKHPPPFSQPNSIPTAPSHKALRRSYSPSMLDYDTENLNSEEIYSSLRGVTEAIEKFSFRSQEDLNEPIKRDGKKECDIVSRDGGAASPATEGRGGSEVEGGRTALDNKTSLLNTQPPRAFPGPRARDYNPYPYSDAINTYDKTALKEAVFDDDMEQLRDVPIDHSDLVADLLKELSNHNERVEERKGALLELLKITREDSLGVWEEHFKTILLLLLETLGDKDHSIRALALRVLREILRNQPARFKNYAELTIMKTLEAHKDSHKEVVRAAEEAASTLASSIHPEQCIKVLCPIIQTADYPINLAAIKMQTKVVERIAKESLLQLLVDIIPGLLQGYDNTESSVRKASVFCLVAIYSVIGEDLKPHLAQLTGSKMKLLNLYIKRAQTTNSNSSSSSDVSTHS
UniProt O43529: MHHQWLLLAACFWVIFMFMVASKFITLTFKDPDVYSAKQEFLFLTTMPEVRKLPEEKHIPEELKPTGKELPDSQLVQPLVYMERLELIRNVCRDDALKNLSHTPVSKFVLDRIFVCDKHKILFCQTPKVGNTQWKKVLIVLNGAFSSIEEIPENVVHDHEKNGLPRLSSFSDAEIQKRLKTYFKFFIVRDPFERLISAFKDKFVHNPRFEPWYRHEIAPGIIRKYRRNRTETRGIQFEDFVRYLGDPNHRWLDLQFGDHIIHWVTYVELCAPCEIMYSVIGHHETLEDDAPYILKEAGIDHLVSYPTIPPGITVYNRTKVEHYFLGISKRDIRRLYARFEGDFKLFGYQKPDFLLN
UniProt P54105: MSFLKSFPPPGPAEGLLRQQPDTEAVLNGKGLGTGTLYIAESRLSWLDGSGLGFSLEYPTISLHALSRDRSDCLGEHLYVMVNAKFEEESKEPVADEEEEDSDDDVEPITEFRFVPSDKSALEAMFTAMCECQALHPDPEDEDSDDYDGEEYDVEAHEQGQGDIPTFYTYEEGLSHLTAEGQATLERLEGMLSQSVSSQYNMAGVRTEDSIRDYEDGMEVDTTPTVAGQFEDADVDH
UniProt O15111: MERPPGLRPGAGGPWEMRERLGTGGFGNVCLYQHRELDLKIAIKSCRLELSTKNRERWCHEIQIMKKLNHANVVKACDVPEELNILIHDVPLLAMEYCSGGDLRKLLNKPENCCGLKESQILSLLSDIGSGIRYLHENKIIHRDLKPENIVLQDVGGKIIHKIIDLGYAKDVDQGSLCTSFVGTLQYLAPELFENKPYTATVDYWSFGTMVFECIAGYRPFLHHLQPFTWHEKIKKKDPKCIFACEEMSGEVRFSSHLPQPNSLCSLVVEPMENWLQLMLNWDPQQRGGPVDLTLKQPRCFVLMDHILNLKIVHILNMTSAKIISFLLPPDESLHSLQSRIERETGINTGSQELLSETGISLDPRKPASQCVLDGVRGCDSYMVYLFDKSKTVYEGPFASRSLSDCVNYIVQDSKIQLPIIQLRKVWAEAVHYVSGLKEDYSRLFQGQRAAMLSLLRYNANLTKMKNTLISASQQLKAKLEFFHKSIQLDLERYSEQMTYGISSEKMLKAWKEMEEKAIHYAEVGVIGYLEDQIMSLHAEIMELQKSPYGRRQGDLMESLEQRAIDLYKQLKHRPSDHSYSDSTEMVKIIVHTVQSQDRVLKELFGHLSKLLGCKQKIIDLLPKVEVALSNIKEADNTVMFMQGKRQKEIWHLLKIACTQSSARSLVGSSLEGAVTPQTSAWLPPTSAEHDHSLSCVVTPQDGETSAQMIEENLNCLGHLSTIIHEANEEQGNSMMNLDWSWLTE
UniProt P61024, whole entry, looked up: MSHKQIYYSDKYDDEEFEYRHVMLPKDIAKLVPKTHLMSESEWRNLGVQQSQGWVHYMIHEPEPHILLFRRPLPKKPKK
UniProt Q8IWX8: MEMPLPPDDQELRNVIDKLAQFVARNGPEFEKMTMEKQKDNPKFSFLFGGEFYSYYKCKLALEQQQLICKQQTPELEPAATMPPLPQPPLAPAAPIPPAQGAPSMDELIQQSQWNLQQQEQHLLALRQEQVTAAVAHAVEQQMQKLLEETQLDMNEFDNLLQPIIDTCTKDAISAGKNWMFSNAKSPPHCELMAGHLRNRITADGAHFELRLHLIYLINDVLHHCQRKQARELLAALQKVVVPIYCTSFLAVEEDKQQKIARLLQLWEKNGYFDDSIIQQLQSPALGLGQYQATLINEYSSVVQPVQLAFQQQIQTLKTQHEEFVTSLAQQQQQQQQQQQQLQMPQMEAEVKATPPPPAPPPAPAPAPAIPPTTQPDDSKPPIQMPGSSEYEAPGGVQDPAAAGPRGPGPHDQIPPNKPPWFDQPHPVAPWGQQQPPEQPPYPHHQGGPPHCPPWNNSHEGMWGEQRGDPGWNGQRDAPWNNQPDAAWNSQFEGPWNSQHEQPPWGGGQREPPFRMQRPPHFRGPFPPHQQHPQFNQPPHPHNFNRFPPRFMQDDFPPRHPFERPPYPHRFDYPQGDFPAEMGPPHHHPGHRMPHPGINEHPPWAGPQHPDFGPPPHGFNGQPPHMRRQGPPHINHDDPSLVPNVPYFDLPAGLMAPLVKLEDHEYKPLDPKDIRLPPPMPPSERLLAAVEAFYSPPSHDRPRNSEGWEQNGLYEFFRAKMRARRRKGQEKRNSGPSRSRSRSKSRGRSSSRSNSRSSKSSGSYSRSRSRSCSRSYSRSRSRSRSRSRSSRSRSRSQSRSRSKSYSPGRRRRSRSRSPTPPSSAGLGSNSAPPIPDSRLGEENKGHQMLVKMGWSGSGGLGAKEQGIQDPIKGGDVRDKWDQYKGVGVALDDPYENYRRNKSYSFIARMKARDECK
UniProt Q8N1G2: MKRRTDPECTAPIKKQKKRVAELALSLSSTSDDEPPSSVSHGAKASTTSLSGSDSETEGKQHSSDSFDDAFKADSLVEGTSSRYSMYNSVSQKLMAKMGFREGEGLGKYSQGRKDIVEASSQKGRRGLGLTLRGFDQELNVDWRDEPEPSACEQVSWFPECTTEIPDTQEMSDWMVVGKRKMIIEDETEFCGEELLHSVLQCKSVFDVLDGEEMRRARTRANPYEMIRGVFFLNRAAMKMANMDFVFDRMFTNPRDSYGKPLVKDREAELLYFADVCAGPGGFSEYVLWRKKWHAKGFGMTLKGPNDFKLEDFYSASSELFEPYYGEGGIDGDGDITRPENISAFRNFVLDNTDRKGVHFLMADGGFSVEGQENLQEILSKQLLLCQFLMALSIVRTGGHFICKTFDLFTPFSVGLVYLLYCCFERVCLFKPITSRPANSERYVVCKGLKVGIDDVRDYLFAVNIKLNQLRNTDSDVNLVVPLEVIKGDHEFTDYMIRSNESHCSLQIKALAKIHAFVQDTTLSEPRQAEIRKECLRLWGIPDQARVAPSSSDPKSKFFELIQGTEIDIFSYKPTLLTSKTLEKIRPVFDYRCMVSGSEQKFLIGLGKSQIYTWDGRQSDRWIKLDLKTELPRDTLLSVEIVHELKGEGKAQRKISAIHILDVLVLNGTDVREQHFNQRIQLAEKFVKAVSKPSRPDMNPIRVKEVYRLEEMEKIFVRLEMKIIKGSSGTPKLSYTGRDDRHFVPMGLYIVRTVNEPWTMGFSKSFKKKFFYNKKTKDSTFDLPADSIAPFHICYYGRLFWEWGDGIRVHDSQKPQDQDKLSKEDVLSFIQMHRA

Some of the results follow.

Compound in one assay: NCC(=O)Nc1ccc(-n2nc(C(F)(F)F)cc2-c2ccc3c(ccc4ccccc43)c2)cc1
Nature of the assay: log2 fold change, soluble protein after heating vs DMSO (PISA); higher = thermal stabilisation; K562 lysate, 10 uM; active = over 0.2 and 3.5 SD of the protein, either way, in both replicates (recomputed). In short, it runs like this:
(§1)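 K562 pellets were dounce-homogenised in PBS pH 7.4 with 1 mM MgCl2, and the crude extract at 1 mg/mL protein was treated with 10 μM compound for 30 min. Aliquots were heated for 3 min across 48°C-58°C, pooled, and brought to 0.5% NP-40 at 4°C; soluble protein was the supernatant after 21,000xg for 90 min. Soluble protein was quantified by TMTpro 16plex LC-MS/MS with channel sums equalised, and reported as log2 fold change in thermal stability against DMSO controls, with values from duplicates.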
With CLTC (UniProt Q00610), the log2 fold change is inactive: 0.033.
With CISD2 (UniProt Q8N5K1), the log2 fold change is inactive: 0.015.
Turning to CHAF1B (UniProt Q13112), the log2 fold change was inactive: 0.021.
For CLK3 (UniProt P49761), the log2 fold change was inactive: 0.055.
On to CHCHD6 (UniProt Q9BRQ6), for which the log2 fold change is inactive: 0.022.
With CHMP6 (UniProt Q96FZ7), the log2 fold change is inactive: -0.066.
Still for that read-out and setting: next, CLTA (UniProt P09496): inactive: -0.047; CHD9 (UniProt Q3L8U1): inactive: -0.018; CMSS1 (UniProt Q9BQ75): inactive: 0.025.
Consider CLUH, A0A494C0R8, for which the log2 fold change is inactive: -0.115.
The same measure, in the same setting: next, CHD4 isoform 2 (UniProt Q14839): inactive: 0.023.
Turning to CLIC1 (UniProt O00299), the log2 fold change is inactive: -0.01.
Take CLPTM1 (UniProt O96005): the log2 fold change is inactive: -0.024.
CHD8 (UniProt Q9HCK8): the log2 fold change is inactive: 0.085.
Same read-out and setting: next, CLIC6 (UniProt Q96NY7): inactive: 0.051; CLASP1 isoform 4 (UniProt Q7Z460): inactive: -0.214.
Consider CHST10 (UniProt O43529), for which the log2 fold change was inactive: -0.041.
Take CHIC1 (UniProt Q5VXU3): the log2 fold change was inactive: -0.001.
For CIC (UniProt I3L2J0), the log2 fold change was inactive: -0.002.
As to CLUL1 (UniProt Q15846), the log2 fold change is inactive: -0.132.
Consider CIP2A (UniProt Q8TCG1), for which the log2 fold change was inactive: 0.043.
Same read-out and setting: next, CLNS1A (UniProt P54105): inactive: -0.026.
Regarding CMTM4 (UniProt Q8IZR5), the log2 fold change is inactive: 0.187.
Turning to CHD3 isoform 3 (UniProt Q12873), the log2 fold change was inactive: 0.022.
For the target CHUK (UniProt O15111), the log2 fold change was inactive: -0.016.
As for CKS1B (UniProt P61024), the log2 fold change was inactive: -0.059.
Turning to CHERP (UniProt Q8IWX8), the log2 fold change is inactive: -0.014.
As for CMTR1 (UniProt Q8N1G2), the log2 fold change is inactive: -0.011.
For CISH isoform 3 (UniProt Q9NSE2), the log2 fold change is inactive: -0.035.
On the same count and under the same terms, next, CLTA isoform 2 (UniProt P09496): inactive: 0.061.
For CIAO3 (UniProt Q9H6Q4), the log2 fold change was inactive: 0.011.
For the target CMTM3 (UniProt Q96MX0), the log2 fold change is inactive: 0.05.

Compound in a further assay: O=C(CCCCCCC(=O)Nc1ccccc1)NO [vorinostat]
The description is as above. In short, it runs like this:
as §1
Regarding CLTC (UniProt Q00610), the log2 fold change is inactive: -0.026.
In the case of CISD2 (UniProt Q8N5K1), the log2 fold change is inactive: 0.111.
On the same count and under the same terms, next, CHAF1B (UniProt Q13112): inactive: -0.044; CLK3 (UniProt P49761): inactive: -0.221; CHCHD6 (UniProt Q9BRQ6): inactive: 0.321.
Consider CHMP6 (UniProt Q96FZ7), for which the log2 fold change is inactive: 0.105.
For CLTA (UniProt P09496), the log2 fold change was inactive: 0.005.
Still for that read-out and setting: next, CHD9 (UniProt Q3L8U1): inactive: -0.111; CMSS1 (UniProt Q9BQ75): active: -0.272; CLUH, A0A494C0R8: inactive: 0.028.
As for CHD4 isoform 2 (UniProt Q14839), the log2 fold change was active: -0.284.
In the case of CLIC1 (UniProt O00299), the log2 fold change is inactive: -0.094.
For the target CLPTM1 (UniProt O96005), the log2 fold change is inactive: 0.074.
Consider CHD8 (UniProt Q9HCK8), for which the log2 fold change was inactive: -0.066.
With CLIC6 (UniProt Q96NY7), the log2 fold change was inactive: -0.15.
On the same count and under the same terms, next, CLASP1 isoform 4 (UniProt Q7Z460): inactive: 0.167; CHST10 (UniProt O43529): inactive: 0.103.
For the target CIC (UniProt I3L2J0), the log2 fold change is inactive: -0.108.
Turning to CIP2A (UniProt Q8TCG1), the log2 fold change is active: -0.608.
On to CLNS1A (UniProt P54105), for which the log2 fold change is inactive: -0.008.
For the target CMTM4 (UniProt Q8IZR5), the log2 fold change is inactive: 0.167.
The same measure, in the same setting: as for CHD3 isoform 3 (UniProt Q12873), the figure is active: -0.316; as for CHUK (UniProt O15111), active: -0.492; as for CKS1B (UniProt P61024), inactive: 0.115.
With CHERP (UniProt Q8IWX8), the log2 fold change is inactive: -0.166.
In the case of CMTR1 (UniProt Q8N1G2), the log2 fold change was inactive: -0.25.
Regarding CLTA isoform 2 (UniProt P09496), the log2 fold change was inactive: 0.196.
Regarding CIAO3 (UniProt Q9H6Q4), the log2 fold change was inactive: -0.182.
Consider CMTM3 (UniProt Q96MX0), for which the log2 fold change was active: -0.516.

Compound in the next assay: O=C(O)c1ccc2c(c1)nc(Nc1cccc(Cl)c1)c1ccncc12 [silmitasertib]
The assay is described as above. In short, it runs like this:
as §1
For CLTC (UniProt Q00610), the log2 fold change was inactive: 0.039.
Take CISD2 (UniProt Q8N5K1): the log2 fold change was inactive: 0.007.
As for CHAF1B (UniProt Q13112), the log2 fold change was inactive: -0.008.
As for CLK3 (UniProt P49761), the log2 fold change is inactive: 0.163.
With CHCHD6 (UniProt Q9BRQ6), the log2 fold change is inactive: -0.019.
For the target CHMP6 (UniProt Q96FZ7), the log2 fold change was inactive: -0.001.
For the target CLTA (UniProt P09496), the log2 fold change was inactive: 0.073.
Consider CHD9 (UniProt Q3L8U1), for which the log2 fold change is inactive: 0.075.
Regarding CMSS1 (UniProt Q9BQ75), the log2 fold change was inactive: 0.038.
In the case of CLUH, A0A494C0R8, the log2 fold change was inactive: 0.069.
Consider CHD4 isoform 2 (UniProt Q14839), for which the log2 fold change was inactive: -0.006.
Same read-out and setting: as for CLIC1 (UniProt O00299), the figure is inactive: -0.008; as for CLPTM1 (UniProt O96005), inactive: 0.031.
Regarding CHD8 (UniProt Q9HCK8), the log2 fold change is inactive: 0.074.
On the same count and under the same terms, next, CLIC6 (UniProt Q96NY7): inactive: -0.004; CLASP1 isoform 4 (UniProt Q7Z460): inactive: 0.06.
As for CHST10 (UniProt O43529), the log2 fold change was inactive: -0.052.
For the target CIC (UniProt I3L2J0), the log2 fold change was inactive: -0.011.
As to CIP2A (UniProt Q8TCG1), the log2 fold change is inactive: 0.055.
CLNS1A (UniProt P54105): the log2 fold change is inactive: 0.022.
As for CMTM4 (UniProt Q8IZR5), the log2 fold change was inactive: 0.091.
Turning to CHD3 isoform 3 (UniProt Q12873), the log2 fold change is inactive: 0.032.
On to CHUK (UniProt O15111), for which the log2 fold change was inactive: 0.103.
In the case of CKS1B (UniProt P61024), the log2 fold change is inactive: -0.004.
As to CHERP (UniProt Q8IWX8), the log2 fold change is inactive: 0.015.
CMTR1 (UniProt Q8N1G2): the log2 fold change was inactive: 0.078.
Still for that read-out and setting: next, CLTA isoform 2 (UniProt P09496): inactive: 0.131; CIAO3 (UniProt Q9H6Q4): inactive: 0.003.
Consider CMTM3 (UniProt Q96MX0), for which the log2 fold change was inactive: -0.004.
